{"source": "patent US20250090865A1", "about": "“LESIONAL DOSIMETRY FOR TARGETED RADIOTHERAPY OF CANCER” (Memorial Sloan-Kettering Cancer Center, priority 2021, published 2025)", "tested_on": "individual lesions of metastatic thyroid cancer", "description": "Dosimetry and estimation of average lesion uptake. A workflow was established for four-time point measurement of individual lesion radioiodine kinetics to generate area under the curve (AUC) estimation for accurate determination of the radiation dose in Gray (Gy) to individual lesions in patients undergoing RAI therapy for DTC. Positron emission tomography (PET/CT) imaging was performed after oral administration of 222 MBq (6.0 mCi) of ^124I—NaI (3D Imaging, Waco, TX). Whole-body imaging was performed at 4, 24, 48, and 96 hours after oral administration of the radioactivity (FIG. 4). Regions of interest were obtained over all visible lesions >0.5 cm within the body and multiple parameters were obtained for later analysis. The following parameters were captured in a database for each patient and each lesion: size in three dimensions (cm); standardized uptake value (SUV), maximum and average; lean body weight; and activity concentration in microcurie/gram. (FIG. 9). For these patients, the best clearance fitting curve was estimated using a dual exponential equation model comprising lesion uptake and clearance. Prior to integration, clearance fitting was adjusted to replace the decay constant of ^124I with ^131I, the therapy isotope of interest, and then integrated to obtain the AUC. This AUC was multiplied by the equilibrium dose constant for the non-penetrating P-emissions of ^131I, yielding the lesion-absorbed dose in Gy.\nRange of ^131I activity to treat a chosen efficacy rate for RAI in mDTC patients. A multi-disciplinary team of nuclear medicine specialists, endocrinologists, medical oncologists, and medical physicists met weekly to make treatment decisions based on the PET data generated, including data from the methods disclosed herein.\nThe target radiation dose of 2000 cGy was chosen because doses above this level are often used as the threshold for patients to receive further radioiodine treatment. Based on the PI now available for the AUC, a simple calculation of the relationship between ^124I and ^131I uptake can yield a PI for the dose [dlow−dhigh]. […] Thus, the higher boundary (dhigh) corresponds to the activity to treat 97.5% of the lesions with the given uptake. By varying this boundary, it is possible to select an activity that will target 95%, 90%, or fewer of the lesions. […]", "key": {"[1]": {"details": "169 treated lesions, 15 treated patients"}}, "data": [{"smiles": "[131I-].[Na+]", "note": "[^131I, Iodine-131]", "values": [{"measurement": "treated lesions that received a dose greater than 2000 cGy", "setting": "163 of 169 treated lesions", "result": 96, "unit": "%"}, {"measurement": "lesion dose, interquartile range", "setting": "[1]", "result": "8551-52,921 cGy"}, {"measurement": "lesion dose, range", "setting": "[1]", "result": "163-906,218 cGy"}, {"measurement": "median lesion dose", "setting": "[1]", "result": "22,305 cGy"}]}]}
